Assay results taken from PMC7031697, “Mechanism of Activation of AMPK by Cordycepin” (Cell Chemical Biology, 2020).

Test system: HepG2 cells
Test: Cellular content of adenine and cordycepin nucleotides by LC-MS
Format: cell-based, human
Conditions: 100 μM cordycepin, time course
Protocol: After treatment, cells for nucleotide analysis were lysed in 70% perchloric acid and the acid extracted as described previously ([Hawley et al., 2010]). The levels of AMP, ADP, ATP, CoMP, CoDP and CoTP were measured using a TSQ Quantiva (with an ion Max NG source) interfaced with an Ultimate 3000 Liquid Chromatography system (ThermoScientific). Separation of all compounds was achieved using a porous graphitic carbon column (HyperCarb 30x1 mm ID […]; Part No: C-35003-031030, Thermo-Scientific) as described previously ([Ross et al., 2017]) with some modifications. Mobile phase buffer A consisted of 0.3% (v/v) formic acid adjusted to pH 9 with ammonia prior to a 1:10 dilution. Mobile phase buffer B was 80% (v/v) acetonitrile. The column was maintained at a controlled temperature of 40°C and equilibrated with 10% buffer B for 5 min at a constant flow rate of 0.05 mL/min. […] Levels of ATP, ADP and AMP were measured using multiple reactions monitoring mode (MRM) with transitions described previously ([Ross et al., 2017]). For CoMP, CoDP and CoTP, optimised collision energies and radio frequencies were determined by infusing the pure compounds. […]

For Nc1ncnc2c1ncn2[C@@H]1O[C@H](CO)C[C@H]1O [cordycepin, 3′-deoxyadenosine], the “time of maximum of cellular cordycepin nucleotides” value was 1 to 2 h and the “time of peak decrease in cellular adenine nucleotides” value was 2 h.
